Some of the results follow.
Columns and labels:
Assay in all cases: log2 fold change, soluble protein after heating vs DMSO (PISA); higher = thermal stabilisation; K562 cells, 10 uM, 30 min; active = over 0.2 and 3.5 SD of the protein, either way, in both replicates (recomputed)
[1] = compound: COC1=CC=C(C=C1)CN2C=CC3=C2C=C(C=C3)C(=O)NO
In short: (§1)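 Values are thermal stability changes relative to control samples and are taken from duplicates. They are stated as log2 fold changes. Before quantification by TMTpro 16plex LC-MS/MS with equalised channel sums, K562 cells at 2×10^6 cells/mL were treated with 10 μM compound for 30 min, heated in aliquots for 3 min across 48°C-58°C, pooled, extracted in PBS with 0.5% NP-40 at 4°C, and centrifuged at 21,000xg for 90 min to give the soluble supernatant.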

Chains of the proteins cited; added tags and fusions are not shown. Lines headed by an entry give the natural chain unless they say otherwise; changes in a name come on top.
UniProt O60264, whole entry, looked up: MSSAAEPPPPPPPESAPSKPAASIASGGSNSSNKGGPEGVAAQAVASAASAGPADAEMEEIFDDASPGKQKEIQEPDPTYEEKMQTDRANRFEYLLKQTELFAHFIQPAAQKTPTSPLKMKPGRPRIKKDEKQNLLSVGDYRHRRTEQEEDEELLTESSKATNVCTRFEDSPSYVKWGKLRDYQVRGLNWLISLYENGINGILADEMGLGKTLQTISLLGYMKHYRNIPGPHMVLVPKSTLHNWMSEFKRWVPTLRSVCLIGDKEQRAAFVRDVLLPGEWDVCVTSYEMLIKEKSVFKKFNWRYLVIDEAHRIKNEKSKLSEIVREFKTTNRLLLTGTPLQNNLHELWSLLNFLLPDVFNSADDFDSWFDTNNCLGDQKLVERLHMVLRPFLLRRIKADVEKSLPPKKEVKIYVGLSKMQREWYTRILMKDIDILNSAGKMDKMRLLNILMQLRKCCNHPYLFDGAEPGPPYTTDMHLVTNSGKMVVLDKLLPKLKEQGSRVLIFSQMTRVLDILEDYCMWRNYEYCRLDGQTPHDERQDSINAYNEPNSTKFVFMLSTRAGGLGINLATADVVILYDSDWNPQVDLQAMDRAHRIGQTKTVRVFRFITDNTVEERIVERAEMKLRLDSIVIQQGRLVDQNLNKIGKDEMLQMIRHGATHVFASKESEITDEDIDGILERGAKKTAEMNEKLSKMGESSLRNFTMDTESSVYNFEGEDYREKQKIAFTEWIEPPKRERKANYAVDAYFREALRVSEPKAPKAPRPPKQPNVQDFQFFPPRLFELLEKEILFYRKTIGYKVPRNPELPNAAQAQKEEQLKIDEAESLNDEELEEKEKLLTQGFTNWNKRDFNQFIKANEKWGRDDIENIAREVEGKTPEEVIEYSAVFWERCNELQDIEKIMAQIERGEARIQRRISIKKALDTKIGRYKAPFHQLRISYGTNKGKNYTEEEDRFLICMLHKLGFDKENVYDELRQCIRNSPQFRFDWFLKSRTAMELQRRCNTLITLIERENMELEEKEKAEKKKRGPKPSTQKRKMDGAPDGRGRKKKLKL
UniProt Q96CW6: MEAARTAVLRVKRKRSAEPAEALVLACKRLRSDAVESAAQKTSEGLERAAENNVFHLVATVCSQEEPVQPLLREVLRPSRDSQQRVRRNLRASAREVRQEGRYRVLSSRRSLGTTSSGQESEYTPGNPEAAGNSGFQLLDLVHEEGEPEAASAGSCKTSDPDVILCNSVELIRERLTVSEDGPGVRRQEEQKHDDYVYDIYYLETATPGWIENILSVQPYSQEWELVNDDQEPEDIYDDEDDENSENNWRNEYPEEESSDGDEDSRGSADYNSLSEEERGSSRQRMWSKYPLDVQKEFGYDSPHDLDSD
UniProt O15198: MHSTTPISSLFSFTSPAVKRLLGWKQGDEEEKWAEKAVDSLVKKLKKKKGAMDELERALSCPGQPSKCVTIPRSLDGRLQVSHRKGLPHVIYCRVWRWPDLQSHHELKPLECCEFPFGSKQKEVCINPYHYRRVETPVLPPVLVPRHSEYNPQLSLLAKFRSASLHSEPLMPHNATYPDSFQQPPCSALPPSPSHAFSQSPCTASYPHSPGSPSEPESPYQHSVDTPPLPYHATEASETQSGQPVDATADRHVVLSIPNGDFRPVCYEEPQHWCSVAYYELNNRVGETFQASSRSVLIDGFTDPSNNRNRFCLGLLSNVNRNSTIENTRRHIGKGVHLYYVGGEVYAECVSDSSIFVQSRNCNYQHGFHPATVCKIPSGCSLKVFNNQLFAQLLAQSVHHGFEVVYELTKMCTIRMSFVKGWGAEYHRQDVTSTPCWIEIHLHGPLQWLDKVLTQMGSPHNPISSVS
UniProt Q96Q15: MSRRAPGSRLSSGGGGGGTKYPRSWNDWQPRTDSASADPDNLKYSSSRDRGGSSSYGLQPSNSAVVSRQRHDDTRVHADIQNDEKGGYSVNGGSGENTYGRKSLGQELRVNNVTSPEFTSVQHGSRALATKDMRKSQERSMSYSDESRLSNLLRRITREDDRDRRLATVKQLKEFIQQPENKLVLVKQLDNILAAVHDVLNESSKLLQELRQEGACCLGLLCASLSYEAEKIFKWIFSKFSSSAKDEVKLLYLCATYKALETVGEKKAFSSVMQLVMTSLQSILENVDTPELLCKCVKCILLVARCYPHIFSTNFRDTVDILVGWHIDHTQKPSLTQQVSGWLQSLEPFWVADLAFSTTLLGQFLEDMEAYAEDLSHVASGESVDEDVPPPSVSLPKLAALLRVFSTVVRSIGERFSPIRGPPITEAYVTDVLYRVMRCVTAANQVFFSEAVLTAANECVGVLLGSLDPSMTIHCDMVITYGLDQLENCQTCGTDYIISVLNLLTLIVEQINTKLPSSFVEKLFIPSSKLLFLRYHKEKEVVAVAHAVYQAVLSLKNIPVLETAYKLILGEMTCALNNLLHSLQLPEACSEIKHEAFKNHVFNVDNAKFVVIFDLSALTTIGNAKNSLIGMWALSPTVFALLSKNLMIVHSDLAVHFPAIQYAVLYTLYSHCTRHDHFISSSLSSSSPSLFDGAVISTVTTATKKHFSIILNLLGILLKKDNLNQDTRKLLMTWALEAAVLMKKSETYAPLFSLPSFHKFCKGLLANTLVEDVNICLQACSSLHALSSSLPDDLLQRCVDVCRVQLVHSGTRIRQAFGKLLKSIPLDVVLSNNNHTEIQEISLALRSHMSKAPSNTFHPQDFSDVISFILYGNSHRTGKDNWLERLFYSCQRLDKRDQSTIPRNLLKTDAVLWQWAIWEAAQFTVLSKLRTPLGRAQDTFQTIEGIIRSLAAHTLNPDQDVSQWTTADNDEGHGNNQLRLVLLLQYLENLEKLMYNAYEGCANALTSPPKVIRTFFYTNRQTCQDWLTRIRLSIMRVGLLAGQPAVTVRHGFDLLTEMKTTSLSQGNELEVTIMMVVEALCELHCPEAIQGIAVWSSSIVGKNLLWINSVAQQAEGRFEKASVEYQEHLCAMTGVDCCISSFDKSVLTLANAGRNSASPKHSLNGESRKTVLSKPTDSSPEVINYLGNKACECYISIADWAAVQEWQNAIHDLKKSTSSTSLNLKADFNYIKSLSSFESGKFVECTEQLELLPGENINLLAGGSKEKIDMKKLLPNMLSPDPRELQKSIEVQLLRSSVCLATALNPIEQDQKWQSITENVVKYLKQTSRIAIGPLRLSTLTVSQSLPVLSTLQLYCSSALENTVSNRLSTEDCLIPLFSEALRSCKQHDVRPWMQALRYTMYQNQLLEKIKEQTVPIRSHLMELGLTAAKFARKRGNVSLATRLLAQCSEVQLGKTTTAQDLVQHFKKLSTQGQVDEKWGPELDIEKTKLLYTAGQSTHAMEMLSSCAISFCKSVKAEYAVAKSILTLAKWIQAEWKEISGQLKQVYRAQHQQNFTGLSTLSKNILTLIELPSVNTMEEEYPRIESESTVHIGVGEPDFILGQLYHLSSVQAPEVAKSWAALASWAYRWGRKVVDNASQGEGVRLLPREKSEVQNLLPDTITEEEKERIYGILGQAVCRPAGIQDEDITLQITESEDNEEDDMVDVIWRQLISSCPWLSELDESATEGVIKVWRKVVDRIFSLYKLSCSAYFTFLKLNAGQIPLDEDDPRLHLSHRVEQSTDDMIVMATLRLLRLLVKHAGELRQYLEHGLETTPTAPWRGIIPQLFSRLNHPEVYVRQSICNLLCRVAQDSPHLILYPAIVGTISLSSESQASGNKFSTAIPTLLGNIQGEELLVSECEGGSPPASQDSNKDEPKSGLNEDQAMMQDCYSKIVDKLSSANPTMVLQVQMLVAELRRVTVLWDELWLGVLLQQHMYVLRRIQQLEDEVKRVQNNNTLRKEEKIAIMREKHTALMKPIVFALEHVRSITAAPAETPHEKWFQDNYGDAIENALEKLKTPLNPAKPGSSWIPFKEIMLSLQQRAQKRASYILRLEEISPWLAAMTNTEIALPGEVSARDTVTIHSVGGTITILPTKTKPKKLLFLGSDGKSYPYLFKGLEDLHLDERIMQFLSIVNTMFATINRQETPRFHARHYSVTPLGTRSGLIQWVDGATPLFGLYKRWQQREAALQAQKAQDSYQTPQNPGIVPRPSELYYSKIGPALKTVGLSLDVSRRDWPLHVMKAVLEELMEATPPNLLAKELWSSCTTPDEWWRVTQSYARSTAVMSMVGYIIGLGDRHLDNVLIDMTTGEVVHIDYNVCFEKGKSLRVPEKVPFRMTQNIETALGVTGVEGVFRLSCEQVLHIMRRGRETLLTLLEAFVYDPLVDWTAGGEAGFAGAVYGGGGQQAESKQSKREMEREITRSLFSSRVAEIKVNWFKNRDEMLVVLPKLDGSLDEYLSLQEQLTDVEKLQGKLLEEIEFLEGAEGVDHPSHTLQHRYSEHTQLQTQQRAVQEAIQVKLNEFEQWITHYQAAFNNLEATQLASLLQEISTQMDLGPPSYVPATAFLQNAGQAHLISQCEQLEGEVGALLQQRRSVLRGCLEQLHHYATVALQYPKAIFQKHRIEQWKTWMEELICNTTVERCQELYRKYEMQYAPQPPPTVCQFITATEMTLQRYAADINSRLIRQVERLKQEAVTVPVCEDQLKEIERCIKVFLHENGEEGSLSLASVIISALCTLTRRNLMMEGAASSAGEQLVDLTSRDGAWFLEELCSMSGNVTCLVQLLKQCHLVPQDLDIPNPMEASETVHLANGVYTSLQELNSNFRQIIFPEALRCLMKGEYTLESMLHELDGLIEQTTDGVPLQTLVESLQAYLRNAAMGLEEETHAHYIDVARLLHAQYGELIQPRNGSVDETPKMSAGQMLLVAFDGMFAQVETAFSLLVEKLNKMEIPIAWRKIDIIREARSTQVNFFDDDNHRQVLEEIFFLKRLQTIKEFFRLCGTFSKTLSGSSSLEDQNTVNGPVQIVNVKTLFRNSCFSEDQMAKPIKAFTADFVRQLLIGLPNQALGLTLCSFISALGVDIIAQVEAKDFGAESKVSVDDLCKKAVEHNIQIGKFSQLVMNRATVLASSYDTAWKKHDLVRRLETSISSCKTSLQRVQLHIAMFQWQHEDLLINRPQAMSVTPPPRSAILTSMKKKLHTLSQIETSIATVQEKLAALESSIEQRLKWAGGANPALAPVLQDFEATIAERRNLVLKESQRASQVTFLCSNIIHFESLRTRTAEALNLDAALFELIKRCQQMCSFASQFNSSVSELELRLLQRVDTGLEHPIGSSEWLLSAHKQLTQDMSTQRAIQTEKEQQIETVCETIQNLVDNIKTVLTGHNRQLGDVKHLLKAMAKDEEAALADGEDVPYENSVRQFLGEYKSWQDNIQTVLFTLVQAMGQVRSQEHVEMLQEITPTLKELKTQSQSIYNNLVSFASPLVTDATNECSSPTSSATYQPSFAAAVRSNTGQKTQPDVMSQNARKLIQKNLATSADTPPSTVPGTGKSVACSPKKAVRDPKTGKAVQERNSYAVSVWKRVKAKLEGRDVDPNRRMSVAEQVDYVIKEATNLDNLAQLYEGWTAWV
UniProt Q15796, whole entry, looked up: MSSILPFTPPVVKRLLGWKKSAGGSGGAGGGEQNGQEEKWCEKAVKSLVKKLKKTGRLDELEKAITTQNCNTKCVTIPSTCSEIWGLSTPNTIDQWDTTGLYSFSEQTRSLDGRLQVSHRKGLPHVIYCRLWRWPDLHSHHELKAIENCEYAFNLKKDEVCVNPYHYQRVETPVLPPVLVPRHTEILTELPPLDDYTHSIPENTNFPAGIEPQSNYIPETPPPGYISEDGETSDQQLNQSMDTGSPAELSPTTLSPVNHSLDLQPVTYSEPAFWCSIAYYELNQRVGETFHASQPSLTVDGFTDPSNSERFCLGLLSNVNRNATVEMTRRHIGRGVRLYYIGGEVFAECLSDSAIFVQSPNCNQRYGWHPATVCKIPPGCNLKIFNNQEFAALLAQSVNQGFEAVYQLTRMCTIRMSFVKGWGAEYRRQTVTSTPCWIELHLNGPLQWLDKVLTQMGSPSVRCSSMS
UniProt Q9H0W8: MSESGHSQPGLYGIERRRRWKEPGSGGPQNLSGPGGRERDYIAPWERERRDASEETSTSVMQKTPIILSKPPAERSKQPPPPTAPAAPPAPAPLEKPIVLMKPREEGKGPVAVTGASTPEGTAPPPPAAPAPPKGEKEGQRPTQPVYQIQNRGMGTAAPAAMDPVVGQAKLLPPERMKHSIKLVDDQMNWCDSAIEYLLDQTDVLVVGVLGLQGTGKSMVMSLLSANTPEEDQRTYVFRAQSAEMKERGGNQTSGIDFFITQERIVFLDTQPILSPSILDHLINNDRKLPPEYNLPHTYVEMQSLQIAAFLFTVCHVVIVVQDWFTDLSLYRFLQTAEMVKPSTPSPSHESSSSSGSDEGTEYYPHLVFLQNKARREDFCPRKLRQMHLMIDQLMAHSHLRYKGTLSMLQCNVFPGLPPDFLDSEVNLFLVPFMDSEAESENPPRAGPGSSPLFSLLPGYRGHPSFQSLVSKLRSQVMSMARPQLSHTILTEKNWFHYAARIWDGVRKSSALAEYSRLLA

filanesib = compound: CON(C)C(=O)N1N=C(c2cc(F)ccc2F)S[C@@]1(CCCN)c1ccccc1 [filanesib]
In short: as §1

zotarolimus = compound: CO[C@H]1C[C@@H]2CC[C@@H](C)[C@@](O)(O2)C(=O)C(=O)N2CCCC[C@H]2C(=O)O[C@H]([C@H](C)C[C@@H]2CC[C@H](n3cnnn3)[C@H](OC)C2)CC(=O)[C@H](C)/C=C(\C)[C@@H](O)[C@@H](OC)C(=O)[C@H](C)C[C@H](C)/C=C/C=C/C=C/1C [zotarolimus]
In short: as §1

idasanutlin = compound: COc1cc(C(=O)O)ccc1NC(=O)[C@@H]1N[C@@H](CC(C)(C)C)[C@](C#N)(c2ccc(Cl)cc2F)[C@H]1c1cccc(Cl)c1F [idasanutlin]
In short: as §1

alisertib = compound: COc1cc(Nc2ncc3c(n2)-c2ccc(Cl)cc2C(c2c(F)cccc2OC)=NC3)ccc1C(=O)O [alisertib]
In short: as §1

[2] = compound: COc1cc2nc(-c3cc(F)ccc3O)nc(N[C@@H]3CNC[C@H]3C(C)(C)O)c2cc1OC
In short: as §1

gefitinib = compound: COc1cc2ncnc(Nc3ccc(F)c(Cl)c3)c2cc1OCCCN1CCOCC1 [gefitinib]
In short: as §1

[3] = compound: COc1cccc2cc(-c3nc([C@H]4CC[C@H](C(=O)O)CC4)n4ncnc(N)c34)[nH]c12
In short: as §1

lapatinib = compound: CS(=O)(=O)CCNCc1ccc(-c2ccc3ncnc(Nc4ccc(OCc5cccc(F)c5)c(Cl)c4)c3c2)o1 [lapatinib]
In short: as §1

pictilisib = compound: CS(=O)(=O)N1CCN(Cc2cc3nc(-c4cccc5[nH]ncc45)nc(N4CCOCC4)c3s2)CC1 [pictilisib]
In short: as §1

[4] = compound: CS(=O)(=O)c1ccc(-c2cnc(N)c(C(=O)Nc3ccccc3)n2)cc1
In short: as §1

crizotinib = compound: C[C@@H](Oc1cc(-c2cnn(C3CCNCC3)c2)cnc1N)c1c(Cl)ccc(F)c1Cl [crizotinib]
In short: as §1

[5] = compound: C[C@@H]1COCCN1C2=NC(=NC(=C2)C3(CC3)S(=O)(=O)C)C4=C5C=CNC5=CC=C4
In short: as §1

[6] = compound: C[C@H](C1=CC=C(C=C1)C(=O)NC2=C3C=CNC3=NC=C2)N
In short: as §1

gandotinib = compound: Cc1cc(Nc2cc(CN3CCOCC3)c3nc(C)c(Cc4ccc(Cl)cc4F)n3n2)n[nH]1 [gandotinib]
In short: as §1

[7] = compound: Cc1cc(SCc2sc(-c3ccc(C(F)(F)F)cc3)nc2C)ccc1OCC(=O)O
In short: as §1

doramapimod = compound: Cc1ccc(-n2nc(C(C)(C)C)cc2NC(=O)Nc2ccc(OCCN3CCOCC3)c3ccccc23)cc1 [doramapimod]
In short: as §1

ispinesib = compound: Cc1ccc(C(=O)N(CCCN)[C@@H](c2nc3cc(Cl)ccc3c(=O)n2Cc2ccccc2)C(C)C)cc1 [ispinesib]
In short: as §1

duvelisib = compound: C[C@H](Nc1ncnc2nc[nH]c12)c1cc2cccc(Cl)c2c(=O)n1-c1ccccc1 [duvelisib]
In short: as §1

tozasertib = compound: Cc1cc(Nc2cc(N3CCN(C)CC3)nc(Sc3ccc(NC(=O)C4CC4)cc3)n2)n[nH]1 [tozasertib]
In short: as §1

Measured: log2 fold change

SMC5 (UniProt Q8IY18)
inactive: [1] -0.055 | filanesib 0.009 | zotarolimus -0.032 | idasanutlin -0.081 | alisertib 0.047 | [2] 0.009 | gefitinib 0.034 | [3] 0.028 | lapatinib 0.018 | pictilisib 0.024 | [4] 0.03 | crizotinib 0.161 | [5] 0.081 | [6] 0.036 | gandotinib 0.028 | [7] 0.017 | doramapimod 0.015 | ispinesib 0.092

SMARCA5 (UniProt O60264)
inactive: [1] 0.047 | filanesib 0.047 | zotarolimus 0.043 | idasanutlin 0.059 | alisertib -0.064 | [2] -0.049 | gefitinib 0.073 | [3] -0.144 | lapatinib -0.017 | pictilisib 0.004 | [4] -0.004 | crizotinib -0.073 | [5] 0.273 | [6] 0.161 | gandotinib -0.045 | [7] 0.127 | doramapimod -0.052 | ispinesib -0.012

SLC7A6OS (UniProt Q96CW6)
inactive: [1] -0.085 | filanesib 0.006 | zotarolimus 0.046 | idasanutlin -0.034 | alisertib -0.073 | [2] -0.072 | gefitinib 0.007 | [3] -0.037 | lapatinib 0.038 | pictilisib 0.019 | [4] 0.047 | crizotinib -0.04 | [5] 0.004 | [6] -0.133 | gandotinib -0.081 | [7] -0.049 | doramapimod 0.214 | ispinesib 0.077

Fetched one by one from above (2):
SMC5 (UniProt Q8IY18)
inactive: [1] -0.055 | filanesib 0.009 | zotarolimus -0.032 | idasanutlin -0.081 | alisertib 0.047 | [2] 0.009 | gefitinib 0.034 | [3] 0.028 | lapatinib 0.018 | pictilisib 0.024 | [4] 0.03 | crizotinib 0.161 | [5] 0.081 | [6] 0.036 | gandotinib 0.028 | [7] 0.017 | doramapimod 0.015 | ispinesib 0.092

SLC7A6OS (UniProt Q96CW6)
inactive: [1] -0.085 | filanesib 0.006 | zotarolimus 0.046 | idasanutlin -0.034 | alisertib -0.073 | [2] -0.072 | gefitinib 0.007 | [3] -0.037 | lapatinib 0.038 | pictilisib 0.019 | [4] 0.047 | crizotinib -0.04 | [5] 0.004 | [6] -0.133 | gandotinib -0.081 | [7] -0.049 | doramapimod 0.214 | ispinesib 0.077

(next part)

SMAD9 (UniProt O15198)
inactive: [1] -0.002 | filanesib 0.009 | zotarolimus -0.033 | idasanutlin -0.132 | alisertib -0.014 | [2] -0.012 | gefitinib 0.066 | [3] -0.005 | lapatinib 0.051 | pictilisib 0.148 | [4] 0.016 | crizotinib 0.019 | [5] 0.068 | [6] 0.037 | gandotinib -0.197 | [7] 0.074 | doramapimod -0.013 | ispinesib -0.169

SMARCA1 (UniProt P28370)
inactive: [1] -0.24 | filanesib 0.019 | zotarolimus 0.006 | idasanutlin -0.178 | alisertib 0.001 | [2] 0.118 | [3] -0.145 | lapatinib -0.06 | pictilisib -0.164 | [4] -0.006 | crizotinib 0.015 | [5] 0.06 | [6] 0.159 | duvelisib 0.094 | gandotinib -0.433 | tozasertib 0.125 | [7] 0.095 | doramapimod 0.354 | ispinesib -0.173

SMARCE1 (UniProt Q969G3)
inactive: [1] 0.035 | filanesib 0.058 | zotarolimus 0.052 | idasanutlin 0.013 | alisertib -0.21 | [2] -0.07 | gefitinib 0.066 | [3] 0.206 | lapatinib 0.038 | pictilisib -0.062 | [4] -0.088 | crizotinib 0.011 | [5] 0.048 | [6] 0.093 | gandotinib -0.087 | [7] 0.135 | doramapimod 0.052 | ispinesib 0.048

SMG1 (UniProt Q96Q15)
inactive: [1] -0.142 | filanesib 0.061 | zotarolimus -0.001 | idasanutlin -0.038 | alisertib -0.002 | [2] 0.055 | gefitinib 0.008 | [3] -0.047 | lapatinib 0.003 | pictilisib 0.018 | [4] 0.04 | crizotinib 0.012 | [5] -0.083 | [6] 0.016 | gandotinib -0.024 | [7] 0.098 | doramapimod 0.051 | ispinesib 0.033

SMAD2 (UniProt Q15796)
inactive: [1] -0.011 | filanesib 0.091 | zotarolimus 0.043 | idasanutlin 0 | alisertib 0.032 | [2] -0.016 | gefitinib 0.117 | [3] -0.032 | lapatinib 0.043 | pictilisib 0.102 | [4] 0.132 | crizotinib 0.255 | [5] -0.015 | [6] 0.012 | gandotinib 0.045 | [7] 0.071 | doramapimod -0.04 | ispinesib -0.019

SMG9 (UniProt Q9H0W8)
inactive: [1] 0.019 | filanesib 0.034 | zotarolimus 0.063 | idasanutlin -0.014 | alisertib -0.236 | [2] 0.045 | [3] 0.273 | lapatinib -0.17 | pictilisib 0.008 | [4] 0.044 | crizotinib -0.128 | [5] -0.078 | [6] 0.201 | duvelisib 0.138 | gandotinib -0.071 | tozasertib -0.077 | [7] -0.015 | doramapimod 0.058
